“And” between values parts separate entries of the source, which are not always exact repeats. Equal values may be shown once.
Tested on: IMCSzyme™ (recombinant glucuronidase)
Test: IMCSzyme hydrolysis of THCA glucuronide with and without water miscible organic media
Type: biochemical
Conditions: for Actual Conc. / % Dev.: replicates 01-05; for Actual Conc.: expected 18.5 ng/mL; for % Dev.: versus expected 18.5 ng/mL
Protocol: To a 10 mL volumetric flask add 5 mL of 0.2M Sodium Phosphate buffer pH 7.5. Then add 1.0 mL of IMCS enzyme. QS to the line with 0.2M phosphate buffer, cap and invert several times to mix well. Final enzyme concentration is 5000 U.
To a 10 mL volumetric flask add 6 mL of 50/50 ACN/MeOH. Add […] of THCA D9 100 μg/mL. Then add 1.0 mL of IMCS enzyme stock (>5000 U). QS to the line with 0.2M sodium phosphate buffer. Final enzyme concentration is 5000 U.
In a 10 mL volumetric flask add 6 mL of 50/50 ACN/MeOH. Add 25 μL of THCA D9 (100 μg/mL). QS to the line with DI water, cap and invert several times to mix well. Concentration of IS will be 250 ng/mL.
To a 10 mL volumetric flask add 1 mL ACN. Add 18.5 μL of 10 μg/mL THCA Glucuronide working solution adjusted to allow quantitation of THCA at 18.5 ng/mL post hydrolysis. QS to line with NHU.
Pipet 50 μL sample into a 750 μL autosampler vial. Pipet 50 μL of prepared enzyme into vial (this will yield 500 U in final 500 μL volume) and wait 5, 10, 15, and 20 minutes. Then pipet 400 μL of THCA D9 IS into the vial. Vortex and move to instrument.
Pipet 50 μL sample into a 750 μL, autosampler vial. Then pipet 450 μL, of Enzyme Stock Solution With Organic (see above) into vial. Wait 5, 10, 15, and 20 minutes. Vortex and move to instrument.

## CCCCCc1cc(O)c2c(c1)OC(C)(C)C1CCC(C(=O)OC3OC(C(=O)O)C(O)C(O)C3O)=CC21 (stereo not drawn) [THCA Glucuronide]
55° C., 5 min
  Average % Accuracy: 89.20%
  % Dev.: 7.96% and 14.35% and 13.15% and 7.04% and 11.48%
55° C., 5 min, enzyme incubated, then organic media added
  Actual Conc.: 20.1 ng/mL and 21.6 ng/mL and 21.3 ng/mL and 19.9 ng/mL and 20.9 ng/mL
65° C., 5 min
  Average % Accuracy: 90.07%
  % Dev.: 6.09% (2×) and 18.14% and 12.74% and 6.57%
65° C., 5 min, enzyme incubated, then organic media added
  Actual Conc.: 19.7 ng/mL (2×) and 22.6 ng/mL and 21.2 ng/mL and 19.8 ng/mL
Room Temp, 5 minutes
  Average % Accuracy: 110.20%
  % Dev.: −8.19% and −27.59% and −3.93% and −1.09% and −10.12%
Room Temp, 5 minutes, enzyme and organic media added at same time
  Actual Conc.: 17.1 ng/mL and 14.5 ng/mL and 17.8 ng/mL and 18.3 ng/mL and 16.8 ng/mL
Room Temp., 10 minutes
  Average % Accuracy: 101.70%
  % Dev.: −6.32% and 15.53% and −10.12% and 0.00% and −7.56%
Room Temp., 10 minutes, enzyme and organic media added at same time
  Actual Conc.: 17.4 ng/mL and 21.9 ng/mL and 16.8 ng/mL and 18.5 ng/mL and 17.2 ng/mL
